“Also recorded” adds a separate entry of the source. At least one structure is not confirmed: it was looked up by name or label, or the drawing left a doubt.
Tests used:
[1] = test system: human TrkA (HEK_trk cells); assay: 125I-NGF binding displacement in HEK_TrkA cells; conditions: HEK_trk cells expressing TrkA
PC12 cells = assay: NGF-induced neurite outgrowth inhibition; assay type: cell-based, rat; conditions: 5 ng/mL NGF, 4 days
[2] = test system: NGF-induced Erk 1/2 phosphorylation in PC12 cells; assay: NGF-induced Erk 1/2 phosphorylation, Western blot; assay type: cell-based, rat
Description: This assay is useful for establishing that the compounds of the invention are functional NGF antagonists, not receptor agonists (an agonist could conceivably block NGF binding but actually activate the receptor). Erk 1/2 is a kinase activated down stream of TrkA and is a well studied member of the NGF-induced signal transduction cascade.
PC12 cells expressing TrkA and p75 were acutely exposed to 5 ng/mL NGF (15 min; 37° C.; 5% CO2) that was pre-incubated (30 min; room temperature) with or without the compounds. Cells were lysed in Laemmli sample buffer (for SDS-PAGE) or a lysis buffer containing Triton X-100 (for ELISA). Following SDS-PAGE, proteins were electroblotted onto nitrocellulose and immunoprobed for phosphorylated Erk 1 and 2. Blocking and primary antibody incubations of immunoblots were performed in Tris-buffered saline-Tween (10 mM Tris, pH 8.0, 150 mM NaCl, and 0.2% Tween 20) supplemented with 5% (w/v) bovine serum albumin (BSA); secondary antibody incubations were performed in 5% (w/v) dried skim milk powder. Immunoreactive bands were detected by chemiluminescence.

p75 (A875 cells) = molecular target: T1, p75 (A875 cells) (Homo sapiens, UniProt P08138); assay: 125I-NGF binding displacement in A875 cells; conditions: A875 cells expressing p75
T1 construct: cells expressing one or both NGF receptors (PC12: TrkA+p75); A875: p75 alone; endogenous in cells; host or cells: A875 human melanoma cells (whole cells in suspension)
T1 sequence (P08138 29-427): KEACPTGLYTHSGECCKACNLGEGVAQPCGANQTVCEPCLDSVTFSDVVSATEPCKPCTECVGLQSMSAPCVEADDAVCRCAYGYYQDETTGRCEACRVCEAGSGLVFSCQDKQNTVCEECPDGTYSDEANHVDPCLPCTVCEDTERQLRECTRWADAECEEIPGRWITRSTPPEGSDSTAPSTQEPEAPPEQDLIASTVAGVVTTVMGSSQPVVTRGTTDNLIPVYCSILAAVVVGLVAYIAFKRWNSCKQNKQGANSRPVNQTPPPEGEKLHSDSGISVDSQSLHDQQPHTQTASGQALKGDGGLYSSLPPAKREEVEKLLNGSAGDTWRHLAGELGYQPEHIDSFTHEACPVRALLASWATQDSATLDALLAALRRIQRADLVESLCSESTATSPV

PC12 (TrkA & p75) = assay: 125I-NGF binding displacement in PC12 cells; set-up: species or system rat
Description: The method for acquiring the PC12 data described in Table 1 is described herein in Example 1. Each experiment was done at least once with an n value of 4 for each data point. (n/a=not acquired)
All cells were incubated at 37° C. in 5% CO2. PC12 cells were maintained in RPMI-1640 medium supplemented with 10% fetal bovine serum (FBS). A875 human melanoma cells were maintained in DMEM with 10% FBS. HEK 293 cells were stably transfected with human TrkA plasmid (see below) and maintained in DMEM with 10% FBS and G418 (600 μg/mL) for selection.
NGF binding was evaluated using methods familiar to those who are skilled in the art. […] Non-specific binding was determined for reference by incubating ^125I-NGF with an excess of non-radioactive NGF in the abence of compound. Following a two-hour incubation period at 4° C., ^125I-NGF bound to the cells was quantified in a gamma radiation counter following separation from unbound NGF by filtration or centrifugation through glycerol (10% in HKR). Inhibition of binding was calculated as a percent of the specific binding (calculated as the differential between ^125I-NGF binding in the absence and presence of an excess of non-radioactive NGF without compound). […]

O=C(O)c1ccc(Cl)c(N2C(=O)c3ccc4c(=O)n5c6cc(C(=O)O)ccc6nc5c5ccc(c3c45)C2=O)c1 [Compound 90, 2-(5-Carboxy-2-chloro-phenyl)-1,3,6-trioxo-1,2,3,6-tetrahydro-benzo[lmn]benzo[4,5]imidazo[2,1-b][3,8]phenanthroline-9-carboxylic acid]
NGF binding displacement curve [1]: effectively blocks NGF binding
Inhibition of neurite outgrowth induced by NGF (PC12 cells): effectively inhibits neurite outgrowth
Inhibition of NGF-induced Erk 1/2 phosphorylation ([2]; NGF 1 ng/mL): inhibits NGF (1 ng/mL)-induced Erk 1/2 phosphorylation
Inhibition of NGF-induced Erk 1/2 phosphorylation ([2]; NGF 5 ng/mL): inhibit NGF-induced Erk 1/2 phosphorylation; also recorded: inhibits NGF (5 ng/mL)-induced Erk 1/2 phosphorylation
NGF binding displacement, dose-response curve (p75 (A875 cells)): effectively blocks NGF binding
NGF binding displacement, dose-response curve (PC12 (TrkA & p75); PC12 cells expressing TrkA and p75): effectively blocks NGF binding
PC12 (TrkA & p75) Single point (% max binding) Mean (PC12 (TrkA & p75); compound concentration 0.2 μM): *** (0 > *** > 30)
